Data published in PubChem BioAssay AID720504 (National Center for Advancing Translational Sciences (NCATS), 2013).
Among all 360,000 compounds or so, about 10,000 (2.8%) were called active. Inconclusive results, whose numbers are uncertain, are shown with a selection of clear calls. The call rests on the fitted dose curve; in most records, active means well fitted inhibition curve with a large enough effect; inconclusive means small, poorly fitted or top-dose-only effect; inactive means flat fitted curve, though single readings scatter. Potencies of inconclusive entries are doubtful fits and often do not repeat.

By UniProt entry, the sequences of proteins in these tests, tags left out.
UniProt P53350, whole entry, looked up: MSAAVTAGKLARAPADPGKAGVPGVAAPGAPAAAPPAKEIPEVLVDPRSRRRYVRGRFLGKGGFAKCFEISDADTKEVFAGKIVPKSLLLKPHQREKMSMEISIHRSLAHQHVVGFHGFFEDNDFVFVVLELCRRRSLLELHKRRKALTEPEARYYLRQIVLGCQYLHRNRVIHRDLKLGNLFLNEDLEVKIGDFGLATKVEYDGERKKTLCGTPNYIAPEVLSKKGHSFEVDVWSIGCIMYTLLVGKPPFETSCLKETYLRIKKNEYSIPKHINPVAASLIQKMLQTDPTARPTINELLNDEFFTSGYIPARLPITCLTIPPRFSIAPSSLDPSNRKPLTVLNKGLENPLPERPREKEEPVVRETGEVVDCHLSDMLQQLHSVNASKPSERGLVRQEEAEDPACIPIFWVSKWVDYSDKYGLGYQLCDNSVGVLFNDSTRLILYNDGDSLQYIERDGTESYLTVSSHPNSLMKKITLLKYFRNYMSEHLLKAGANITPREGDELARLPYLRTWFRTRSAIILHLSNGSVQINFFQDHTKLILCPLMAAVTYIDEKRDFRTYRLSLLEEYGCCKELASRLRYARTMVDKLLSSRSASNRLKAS

Each molecule was assayed against Serine/threonine-protein kinase PLK1 (Homo sapiens) (UniProt P53350) (assay: qHTS for Inhibitors of PLK1-PDB (polo-like kinase 1 - polo-box domain): Primary Screen). Conditions: Plk1 PBD binding of FITC phosphopeptide, fluorescence polarization.
Further: nearly all actives have a fitted effect of over 65% in size.
On the % scale 0 is the no-effect control and ±100 the full control effect; potency means the concentration at half of the fitted maximal effect.
Wherever max response, negative = inhibition is given: series mostly up to about 57 µM.

SMILES | max response, negative = inhibition | Potency
CC(C)c1ccc(CC(=O)N2CCC2(C)C(=O)NS(=O)(=O)c2ccc(Cl)s2)cc1 (configuration not stated) | inactive: -19.8% | –
Cc1ccc(-c2nc3sc4c(c3c(=O)n2N)CC(C)(C)OC4)cc1 | – | inconclusive: 21.2 µM [inhibitor, partial curve]
C[C@@H](NC(=O)c1cc2c([nH]c3ccccc32)c(-c2ccccc2)n1)C(=O)O | – | inconclusive: 33.6 µM [inhibitor, single point]
O=C(Nc1nc(-c2ccccc2)ns1)c1ccncc1 | – | active: 8.44 µM
CC1CCCN(C(=O)c2cn(-c3ccccc3)nc2-c2cccnc2)C1 (configuration not stated) | inactive: 0.127% | –
CCOC(=O)N1CCN(C2=C(NS(=O)(=O)c3ccc(C)cc3)C(=O)c3ccccc3C2=O)CC1 | inconclusive: -30.5% [inhibitor] | –
Cc1csc(Nc2ccccc2)n1 | – | active: 29.9 µM
CCOc1ccc(N(CC(=O)OC)S(=O)(=O)c2c(C)noc2C)cc1 | – | active: 26.7 µM
CCOC(=O)c1ccccc1NC(=O)c1cn(CC)c2nc(C)ccc2c1=O | – | active: 26.7 µM
O=C(N[C@@H](Cc1ccccc1)C(=O)O)c1cccs1 | – | inconclusive: 26.7 µM [inhibitor, single point]
Cc1ccc(C(=O)NC(=S)Nn2cnnc2)cc1 | – | inconclusive: 37.7 µM [inhibitor, single point]
CC(C)C[C@@H]1Cc2[nH][nH]c(=O)c2[C@H](c2ccc(Cl)cc2)O1 | – | inconclusive: 21.2 µM [inhibitor, single point]
Cc1ccc(CCNC(=O)C(C)n2nc(C)c3c(C)n(-c4ccccc4)nc3c2=O)cc1 (configuration not stated) | – | inconclusive: 23.8 µM [inhibitor, single point]
O=C(C=Cc1ccccc1)c1cccs1 | inactive: -15.8% | –
N#C/C(=C\c1ccc(OCc2ccc(C(=O)O)cc2)cc1)C(=O)NCc1ccccc1 | – | inconclusive: 37.7 µM [inhibitor, single point]
COc1cc(N2CN=c3s/c(=C\c4ccccn4)c(=O)n3C2)cc(OC)c1OC | – | inconclusive: 23.8 µM [inhibitor, partial curve]
CCOC(=O)C(NC(C)=O)(Nc1ccc(S(=O)(=O)Nc2cc(C)nc(C)n2)cc1)C(F)(F)F (configuration not stated) | inactive: -9.52% | –
CCCOc1ccc(-c2nc(SCc3ccccc3)[nH]c(=O)c2C#N)cc1OC | – | active: 26.7 µM
CCOc1nc(N=C(N)N)nc2c(C)cccc12 | – | inconclusive: 23.8 µM [inhibitor, partial curve]
CCc1nc2ccc(Cc3ccc4nc(CC)[nH]c4c3)cc2[nH]1 | inactive: 2.22% | –
COc1ccccc1C(=O)O/N=C(\N)c1ccccn1 | inactive: -9.13% | –
N#CC1=C(N)n2c(s/c(=C\c3ccco3)c2=O)=C(C#N)C1c1ccco1 (configuration not stated) | – | inconclusive: 26.7 µM [inhibitor, partial curve]
Cc1ccc(NCc2nnc(SCC(=O)NCc3ccco3)n2CC2CCCO2)cc1Cl (configuration not stated) | – | inconclusive: 23.8 µM [inhibitor, single point]
O=C(CCn1c(=S)[nH]c2ccccc2c1=O)N1CCCCC1 | inactive: -13.4% | –

SMILES | max response, negative = inhibition | Potency
Cc1ccc(-c2c3c(=O)n(C)c(=O)n(C)c3cn2-n2cnnc2)cc1 | – | inconclusive: 11.9 µM [inhibitor, single point]
COC(=O)c1c(NC(=O)CCCC(=O)O)sc2c1CCCCC2 | – | inconclusive: 29.9 µM [inhibitor, partial curve]
Cc1cc(=O)n2[nH]c(COc3ccccc3)nc2n1 | inactive: 1.44% | –
Nc1cc(N)nc(SCc2cc([N+](=O)[O-])cc3c2OCOC3)n1 | – | inconclusive: 21.2 µM [inhibitor, partial curve]
O=C(NCc1ccco1)C1CCCN(c2nnc(-n3cccc3)s2)C1 (configuration not stated) | – | inconclusive: 18.9 µM [inhibitor, partial curve]
Cc1ccccc1OCC(=O)N/N=C/c1ccc([N+](=O)[O-])o1 | – | inconclusive: 8.44 µM [inhibitor, single point]
Cc1ccc(S(=O)(=O)NCC(=O)OCN2C(=O)c3ccccc3C2=O)cc1 | – | active: 5.32 µM
COc1ccc(OC(C)C(=O)N(C)Cc2nc(-c3ccc(OC)cc3)no2)cc1 (configuration not stated) | – | inconclusive: 26.7 µM [inhibitor, single point]
CCOC(=O)c1c2c([nH]c(=S)c1C#N)CCCC2 | – | inconclusive: 21.2 µM [inhibitor, single point]
Cc1ccc(C(c2ccc(C)o2)c2cccc([N+](=O)[O-])c2O)o1 | – | inconclusive: 29.9 µM [inhibitor, single point]
Cc1ccc(-c2c[nH]c(=S)n2-c2ccccc2F)cc1 | inactive: -26.6% | –
O=C(Nc1cc(Cl)ccc1Cl)N1CCCC1 | – | active: 8.44 µM
Cc1cccc(C)c1NC(=O)CN(C)S(=O)(=O)c1ccc(-c2ccc(=O)[nH]n2)s1 | inactive: -12.3% | –
O=C1COc2ccc(C(=O)COC(=O)/C=C/c3ccc(Br)o3)cc2N1 | inconclusive: -34% [inhibitor] | –
CCc1cc(C(=O)Nc2ccc(OC)nc2)sc1C | – | inconclusive: 26.7 µM [inhibitor, single point]
Cc1ccsc1C=C1C(=O)c2ccccc2C1=O | – | inconclusive: 10.6 µM [inhibitor, partial curve]
CC(=O)n1c2ccccc2c2nc3ccccc3nc21 | inactive: -3.13% | –
CCOC(=O)c1ccc(NC(=S)Nc2ccc(Br)cc2N)cc1 | – | inconclusive: 33.6 µM [inhibitor, single point]
COc1cc(NC(=O)C2(C)CCCN2C(=O)C(C)C)cc(OC)c1OC (configuration not stated) | inactive: -3.11% | –
CC1(C(=O)Nc2ccc3c(c2)OCO3)CCN1C(=O)CCC1CCCC1 (configuration not stated) | inactive: 1.28% | –
Cc1ccccc1C(=O)Nc1ccccc1N1CCCCC1 | inactive: -3.61% | –
CCOC(=O)c1ccc(N2C(=O)c3n[nH]c(-c4ccco4)c3C2c2cccc([N+](=O)[O-])c2)cc1 (configuration not stated) | – | inconclusive: 37.7 µM [inhibitor, partial curve]
Cc1ccc(/C=C2\SC(=S)N(/N=C/c3cc([N+](=O)[O-])ccc3O)C2=O)o1 | – | active: 11.9 µM

14 of the compounds above, with tabs.
SMILES	max response, negative = inhibition	Potency
COC(=O)c1c(NC(=O)CCCC(=O)O)sc2c1CCCCC2	–	inconclusive: 29.9 µM [inhibitor, partial curve]
Cc1cc(=O)n2[nH]c(COc3ccccc3)nc2n1	inactive: 1.44%	–
Nc1cc(N)nc(SCc2cc([N+](=O)[O-])cc3c2OCOC3)n1	–	inconclusive: 21.2 µM [inhibitor, partial curve]
O=C(NCc1ccco1)C1CCCN(c2nnc(-n3cccc3)s2)C1 (configuration not stated)	–	inconclusive: 18.9 µM [inhibitor, partial curve]
Cc1ccccc1OCC(=O)N/N=C/c1ccc([N+](=O)[O-])o1	–	inconclusive: 8.44 µM [inhibitor, single point]
CCOC(=O)c1c2c([nH]c(=S)c1C#N)CCCC2	–	inconclusive: 21.2 µM [inhibitor, single point]
Cc1ccc(-c2c[nH]c(=S)n2-c2ccccc2F)cc1	inactive: -26.6%	–
O=C1COc2ccc(C(=O)COC(=O)/C=C/c3ccc(Br)o3)cc2N1	inconclusive: -34% [inhibitor]	–
CCc1cc(C(=O)Nc2ccc(OC)nc2)sc1C	–	inconclusive: 26.7 µM [inhibitor, single point]
Cc1ccsc1C=C1C(=O)c2ccccc2C1=O	–	inconclusive: 10.6 µM [inhibitor, partial curve]
COc1cc(NC(=O)C2(C)CCCN2C(=O)C(C)C)cc(OC)c1OC (configuration not stated)	inactive: -3.11%	–
CC1(C(=O)Nc2ccc3c(c2)OCO3)CCN1C(=O)CCC1CCCC1 (configuration not stated)	inactive: 1.28%	–
CCOC(=O)c1ccc(N2C(=O)c3n[nH]c(-c4ccco4)c3C2c2cccc([N+](=O)[O-])c2)cc1 (configuration not stated)	–	inconclusive: 37.7 µM [inhibitor, partial curve]
Cc1ccc(/C=C2\SC(=S)N(/N=C/c3cc([N+](=O)[O-])ccc3O)C2=O)o1	–	active: 11.9 µM
